Results as given in patent publication US20060115837A1 (WASHINGTON UNIVERSITY, published 2006).
These are yes or no findings as the source states them, for the method shown. Some results given as binding are weak or reduced against the parent protein; the word gives no strength.

Amino acid sequences for entries named in this document (tags omitted). A change or cut given only in a name is not applied to a line headed by its entry.
UniProt Q9Q6P4: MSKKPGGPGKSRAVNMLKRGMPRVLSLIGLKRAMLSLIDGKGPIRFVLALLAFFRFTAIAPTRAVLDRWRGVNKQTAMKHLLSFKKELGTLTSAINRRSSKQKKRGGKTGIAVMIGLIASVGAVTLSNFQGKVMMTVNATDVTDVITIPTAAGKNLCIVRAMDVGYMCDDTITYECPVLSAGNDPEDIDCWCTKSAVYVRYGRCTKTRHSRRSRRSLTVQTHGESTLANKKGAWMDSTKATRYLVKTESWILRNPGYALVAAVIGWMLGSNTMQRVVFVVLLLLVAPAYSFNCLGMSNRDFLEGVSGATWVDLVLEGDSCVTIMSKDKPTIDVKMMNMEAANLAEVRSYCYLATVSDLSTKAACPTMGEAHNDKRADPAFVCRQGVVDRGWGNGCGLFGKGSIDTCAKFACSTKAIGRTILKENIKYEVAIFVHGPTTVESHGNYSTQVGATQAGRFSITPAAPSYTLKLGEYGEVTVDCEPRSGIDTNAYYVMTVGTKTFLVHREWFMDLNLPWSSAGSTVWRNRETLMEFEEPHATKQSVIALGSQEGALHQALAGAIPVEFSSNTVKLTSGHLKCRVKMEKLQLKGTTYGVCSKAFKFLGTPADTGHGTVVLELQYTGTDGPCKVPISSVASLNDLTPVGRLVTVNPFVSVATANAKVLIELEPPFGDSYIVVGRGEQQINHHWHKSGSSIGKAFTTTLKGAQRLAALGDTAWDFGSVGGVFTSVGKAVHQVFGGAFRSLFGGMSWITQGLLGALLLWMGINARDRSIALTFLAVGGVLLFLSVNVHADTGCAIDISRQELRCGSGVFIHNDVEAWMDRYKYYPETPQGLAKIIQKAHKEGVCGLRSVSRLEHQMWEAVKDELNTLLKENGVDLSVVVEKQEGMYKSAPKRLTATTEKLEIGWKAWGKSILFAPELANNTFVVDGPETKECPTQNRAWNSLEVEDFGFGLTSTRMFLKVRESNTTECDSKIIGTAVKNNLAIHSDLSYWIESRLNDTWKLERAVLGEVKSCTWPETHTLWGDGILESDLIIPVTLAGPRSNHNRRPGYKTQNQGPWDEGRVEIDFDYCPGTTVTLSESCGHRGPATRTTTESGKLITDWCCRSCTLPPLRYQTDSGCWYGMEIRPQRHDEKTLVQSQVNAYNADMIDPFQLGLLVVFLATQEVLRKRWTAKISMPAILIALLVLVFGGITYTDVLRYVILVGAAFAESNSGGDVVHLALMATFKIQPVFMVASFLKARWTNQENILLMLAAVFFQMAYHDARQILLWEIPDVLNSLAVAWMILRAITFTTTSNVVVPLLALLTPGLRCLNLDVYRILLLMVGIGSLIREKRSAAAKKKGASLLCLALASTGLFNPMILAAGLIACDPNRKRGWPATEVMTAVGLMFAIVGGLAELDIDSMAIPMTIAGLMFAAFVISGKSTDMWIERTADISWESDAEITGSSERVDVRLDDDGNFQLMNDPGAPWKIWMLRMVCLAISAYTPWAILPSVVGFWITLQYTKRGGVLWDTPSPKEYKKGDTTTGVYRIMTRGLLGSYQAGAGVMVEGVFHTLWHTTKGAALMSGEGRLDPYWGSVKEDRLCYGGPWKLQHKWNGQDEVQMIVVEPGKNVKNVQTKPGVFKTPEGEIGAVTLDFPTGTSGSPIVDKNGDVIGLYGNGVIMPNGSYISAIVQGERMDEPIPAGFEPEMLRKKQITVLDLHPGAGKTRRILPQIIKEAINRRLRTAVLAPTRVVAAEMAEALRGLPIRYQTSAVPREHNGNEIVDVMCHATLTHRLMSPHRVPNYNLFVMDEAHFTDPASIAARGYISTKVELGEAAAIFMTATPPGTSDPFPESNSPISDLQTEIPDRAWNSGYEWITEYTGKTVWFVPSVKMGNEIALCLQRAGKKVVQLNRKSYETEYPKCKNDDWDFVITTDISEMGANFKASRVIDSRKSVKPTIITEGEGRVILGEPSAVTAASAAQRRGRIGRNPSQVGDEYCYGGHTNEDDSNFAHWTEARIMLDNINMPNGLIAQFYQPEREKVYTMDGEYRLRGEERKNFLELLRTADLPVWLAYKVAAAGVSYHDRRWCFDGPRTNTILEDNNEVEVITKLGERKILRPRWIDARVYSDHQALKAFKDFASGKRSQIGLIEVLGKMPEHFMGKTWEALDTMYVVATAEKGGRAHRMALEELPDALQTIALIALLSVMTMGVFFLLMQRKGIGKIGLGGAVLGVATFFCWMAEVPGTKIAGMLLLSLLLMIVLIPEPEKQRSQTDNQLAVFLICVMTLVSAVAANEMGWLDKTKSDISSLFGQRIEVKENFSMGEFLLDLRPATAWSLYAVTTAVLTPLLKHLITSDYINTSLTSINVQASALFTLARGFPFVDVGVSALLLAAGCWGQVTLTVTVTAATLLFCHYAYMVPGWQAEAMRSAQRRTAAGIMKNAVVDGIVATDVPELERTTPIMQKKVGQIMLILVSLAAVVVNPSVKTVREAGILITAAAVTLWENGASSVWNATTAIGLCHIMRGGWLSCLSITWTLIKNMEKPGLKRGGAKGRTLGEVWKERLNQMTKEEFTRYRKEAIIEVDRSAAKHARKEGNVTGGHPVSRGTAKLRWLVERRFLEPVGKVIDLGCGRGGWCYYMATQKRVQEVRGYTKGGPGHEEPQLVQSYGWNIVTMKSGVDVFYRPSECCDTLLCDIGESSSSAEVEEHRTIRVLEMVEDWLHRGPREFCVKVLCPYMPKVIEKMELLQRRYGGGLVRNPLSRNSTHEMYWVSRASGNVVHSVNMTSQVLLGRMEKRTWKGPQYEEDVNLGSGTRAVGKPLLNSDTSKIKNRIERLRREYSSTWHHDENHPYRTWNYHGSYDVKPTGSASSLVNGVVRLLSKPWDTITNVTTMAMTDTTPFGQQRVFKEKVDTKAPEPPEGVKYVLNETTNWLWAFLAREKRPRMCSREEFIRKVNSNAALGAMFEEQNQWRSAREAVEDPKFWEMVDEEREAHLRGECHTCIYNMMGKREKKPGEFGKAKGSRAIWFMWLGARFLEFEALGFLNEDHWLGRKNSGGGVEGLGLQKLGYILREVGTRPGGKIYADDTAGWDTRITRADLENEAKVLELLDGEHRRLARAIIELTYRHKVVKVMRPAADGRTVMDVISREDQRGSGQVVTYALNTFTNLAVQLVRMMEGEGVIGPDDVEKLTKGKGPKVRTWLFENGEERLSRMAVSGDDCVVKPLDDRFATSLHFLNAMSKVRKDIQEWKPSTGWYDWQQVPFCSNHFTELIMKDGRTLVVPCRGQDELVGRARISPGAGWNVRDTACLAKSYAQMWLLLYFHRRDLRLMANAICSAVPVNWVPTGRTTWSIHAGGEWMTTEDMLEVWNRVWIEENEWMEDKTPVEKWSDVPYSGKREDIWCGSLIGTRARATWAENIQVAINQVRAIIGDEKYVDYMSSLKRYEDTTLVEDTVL

Assays:
[1] = target: domain III of West Nile Virus envelope protein (recombinant, refolded) (West Nile Virus (NY1999 strain)) (UniProt Q9Q6P4); test: competition with WNV convalescent antibodies for DIII binding; method and form of DIII not described
[2] = target: domain III of West Nile Virus envelope protein (recombinant, refolded) (West Nile Virus (NY1999 strain)) (UniProt Q9Q6P4); test: X-ray crystal structure of the complex, 2.5 Å
[3] = target: domain III of West Nile Virus envelope protein (recombinant, refolded) (West Nile Virus (NY1999 strain)) (UniProt Q9Q6P4); test: co-crystal structure
[4] = target: domain III of West Nile Virus envelope protein (recombinant, refolded) (West Nile Virus (NY1999 strain)) (UniProt Q9Q6P4); test: complex formation in solution, isolated by gel filtration
[5] = target: WNV E ectodomain (residues 1-415) expressed on yeast (West Nile Virus) (UniProt Q9Q6P4); test: competition for WNV E binding on yeast, flow cytometry
[6] = target: WNV E (residues 296-415) displayed on the surface of yeast as Aga2 fusion protein (West Nile Virus) (UniProt Q9Q6P4); test: flow cytometry on yeast displaying WNV DIII

Measured: binding

B1: Fab fragment of monoclonal antibody E16 (Fab, V domains shown)
VH: QVQLQQSGSELMKPGASVQISCKATGYTFSDYWIEWVKQRPGHGLEWIGILCGTGRTRYNEKLKAMATFTADTSSNTAFMQLSSLTSEDSAVYYCARSASYGDYADYWGHGTTLTVSS
VL: DIVMTQSHKFMSTSVGDRVSITCKASQDVSTAVAWYQQKPGQSPKLLISWASTRHTGVPDRFTGSGSGTDYTLTISSVQAEDLALYYCQQHYTTPLTFGAGTKLELK
binds: [1] | [2] | [3] | [4]

B2: monoclonal antibody E16 (antibody, V domains shown)
VH: QVQLQQSGSELMKPGASVQISCKATGYTFSDYWIEWVKQRPGHGLEWIGILCGTGRTRYNEKLKAMATFTADTSSNTAFMQLSSLTSEDSAVYYCARSASYGDYADYWGHGTTLTVSS
VL: DIVMTQSHKFMSTSVGDRVSITCKASQDVSTAVAWYQQKPGQSPKLLISWASTRHTGVPDRFTGSGSGTDYTLTISSVQAEDLALYYCQQHYTTPLTFGAGTKLELK
binds: [5] | [6]
